In patent US12414958B2, “Medicament and use thereof for treating bacterial infections involving biofilm” (Debiopharm International S.A., priority 2019, dated 2025):
Values joined by “and” are separate entries in the source; they are usually repeats but may differ in a detail not shown here. Identical values can stand only once. At least one compound was matched to its structure with a doubt left.

Assays:
[1] = test system: S. aureus ATCC 43300 (MRSA); assay: Mouse tissue cage model of MRSA infection, 5.5-day treatment (Example 2); type: in vivo, Staphylococcus aureus
Description: (§1) The purpose of this study was to evaluate the efficacy of Debio 1450 BES alone and in combination with Daptomycin (DAP) in the mouse tissue cage model of implant-associated infections caused by methicillin resistant Staphylococcus (S.) aureus (MRSA). The efficacy against 24-h biofilm of S. aureus ATCC 43300 (MRSA) was investigated and compared to the standard of care combination of rifampicin (RIF) and DAP at the human equivalent doses. Employing a small initial inoculum (ca. 300 CFU/cage) together with a 24-h biofilm allowed to simulate clinical settings of an acute implant infection and/or surgical debridement. […]
(§2) Five to 6 days before infection, TCF is aspirated to ascertain the sterility of implanted cages by TCF plating on blood agar plates. […] In addition, the number of bacteria in TCF was determined on day 3 (before the first injection that day), on day 6 (before last treatment), and on day 9 (before explantation of the cages) to evaluate the treatment efficacy against planktonic bacteria. […] The efficacy against biofilm-embedded bacteria was assessed qualitatively and quantitatively following aseptic explantation of the tissue cages 3 days after the completion of treatment. […] Following 30 s vortexing, sonication (3 min at 130 W), and an additional 30 s vortexing step the numbers of bacteria dispersed from biofilm was determined by plating. […]

[2] = test system: S. aureus ATCC 43300 (MRSA); assay: Mouse tissue cage model of MRSA infection, 11-day treatment at lower dosage (Example 3); type: in vivo, Staphylococcus aureus
Description: as §1, with “(MRSA) at lower dosage and longer treatment duration than used in the previous study (Example 2).” for “(MRSA).”, “investigated.” for “investigated and compared to the standard of care combination of rifampicin (RIF) and DAP at the human equivalent doses.”
as §2, with “TCF was” for “TCF is”, “day 6, day 9 and on day 11” for “day 6”, “day 14” for “day 9”, “bacteria is” for “bacteria was”

ATCC 43300 MRSA strain [3] = assay: In vivo murine model of catheter associated infection, 24 h and 72 h MRSA biofilms; design: species or system Staphylococcus aureus; conditions: 24 h and 72 h MRSA catheter biofilms; 5.5-day treatment
Experimental: Two experimental settings were used in this study to evaluate the treatment efficacies against early (24h) and/or mature (72h) MRSA catheter formed biofilms. Briefly, mice were anaesthetised by an IP injection of about 120 μl a mix of ketamine (50 mg/kg) and xylazine (10 mg/kg) (4 mL ketamine+2 mL xylazine+10 mL saline). Flank on the right side was shaved and then disinfected by 3 consecutive applications of betadine. […] In both 24 h and 72h biofilm settings, two groups of infected non-treated animals (Vehicle controls) were evaluated for bacterial counts: at baseline (24h or D1 [for 24-h biofilm] and 72h or D3 [for 72-h biofilm] post infection, i.e. time points corresponding to treatments initiations) and at the termination of treatment duration (D6 [for 24-h biofilm] and D8 [for 72-h biofilm] post infection). Post treatment CFUs were counted on D6 or D8 and results were expressed as Log10 CFU/g of catheter (Mean±SEM). The limit of detection was determined as being 1 Log10 CFU/g of catheter. Changes of CFU/g of catheter (Δ Log10) from the baseline (D1 or D3 for 24-h and 72-h biofilm, respectively) and cure rates (corresponding to the percentage of mice without catheter-associated bacteria within a given treatment group) were also calculated. In vivo induction of antibiotic-resistant bacteria was analysed for all tested antibiotics. […]

ATCC 43300 MRSA strain [4] = assay: Induction of resistance studies, ex vivo bacterial exposure to 4×MIC (Example 1); type: cell-based, Staphylococcus aureus; conditions: ex vivo exposure to 4×MIC; single and combination therapy; 24h or 72h biofilm
Experimental: Two experimental settings were used in this study to evaluate the treatment efficacies against early (24h) and/or mature (72h) MRSA catheter formed biofilms. Briefly, mice were anaesthetised by an IP injection of about 120 μl a mix of ketamine (50 mg/kg) and xylazine (10 mg/kg) (4 mL ketamine+2 mL xylazine+10 mL saline). Flank on the right side was shaved and then disinfected by 3 consecutive applications of betadine. […] In both 24 h and 72h biofilm settings, two groups of infected non-treated animals (Vehicle controls) were evaluated for bacterial counts: at baseline (24h or D1 [for 24-h biofilm] and 72h or D3 [for 72-h biofilm] post infection, i.e. time points corresponding to treatments initiations) and at the termination of treatment duration (D6 [for 24-h biofilm] and D8 [for 72-h biofilm] post infection). Post treatment CFUs were counted on D6 or D8 and results were expressed as Log10 CFU/g of catheter (Mean±SEM). The limit of detection was determined as being 1 Log10 CFU/g of catheter. Changes of CFU/g of catheter (Δ Log10) from the baseline (D1 or D3 for 24-h and 72-h biofilm, respectively) and cure rates (corresponding to the percentage of mice without catheter-associated bacteria within a given treatment group) were also calculated. In vivo induction of antibiotic-resistant bacteria was analysed for all tested antibiotics.

[5] = sonicated cages incubated 48 h in TSB, positive culture = treatment failure, per animal, listed as DAP

Cc1c(CN(C)C(=O)/C=C/c2cnc3c(c2)CCC(=O)N3COP(=O)(O)O)oc2ccccc12 [Debio 1450, {6-[(1E)-3-{methyl [(3-methyl-1-benzofuran-2-yl)methyl]amino}-3-oxoprop-1-en-1-yl]-2-oxo-3,4-dihydro-1,8-naphthyridin-1 (2H)-yl} methyl dihydrogen phosphate]
anti-biofilm effect (in words) ([1]; 24-h biofilm, 50 mg/kg, 5.5-day treatment): moderate anti-biofilm effect
anti-biofilm effect (in words) ([2]; 24-h biofilm, 20 mg/kg BID, 11-day treatment): good anti-biofilm effect
anti-biofilm effect / activity (in words) (ATCC 43300 MRSA strain [3]): relatively weak anti-biofilm effect

CCCCCCCCCC(=O)N[C@@H](Cc1c[nH]c2ccccc12)C(=O)N[C@H](CC(N)=O)C(=O)N[C@@H](CC(=O)O)C(=O)N[C@@H]1C(=O)NCC(=O)N[C@@H](CCCN)C(=O)N[C@@H](CC(=O)O)C(=O)N[C@H](C)C(=O)N[C@@H](CC(=O)O)C(=O)NCC(=O)N[C@H](CO)C(=O)N[C@@H]([C@H](C)CC(=O)O)C(=O)N[C@@H](CC(=O)c2ccccc2N)C(=O)O[C@@H]1C [Daptomycin]
Regrowth (adherent bacteria regrowth following sonication) [1, 5]: + (4×) and − (2×)
Regrowth (adherent bacteria regrowth following sonication) [2, 5]: − (3×) and + (3×)

CO[C@H]1/C=C/O[C@@]2(C)Oc3c(C)c(O)c4c(O)c(c(/C=N/N5CCN(C)CC5)c(O)c4c3C2=O)NC(=O)/C(C)=C\C=C\[C@H](C)[C@H](O)[C@@H](C)[C@@H](O)[C@@H](C)[C@H](OC(C)=O)[C@@H]1C [Rifampicin]
emergence of resistant mutants (ATCC 43300 MRSA strain [4]): no emergence of resistant mutants
